Measurements taken from article doi:10.1101/2023.08.01.549180.
Results are given in words; binding and its absence hold for the method and conditions named. Some binding calls cover weakened binding; strength is not graded here.

Protein sequences, listed by entry. Tags and fused reporters are not part of them.
UniProt P08413, whole entry: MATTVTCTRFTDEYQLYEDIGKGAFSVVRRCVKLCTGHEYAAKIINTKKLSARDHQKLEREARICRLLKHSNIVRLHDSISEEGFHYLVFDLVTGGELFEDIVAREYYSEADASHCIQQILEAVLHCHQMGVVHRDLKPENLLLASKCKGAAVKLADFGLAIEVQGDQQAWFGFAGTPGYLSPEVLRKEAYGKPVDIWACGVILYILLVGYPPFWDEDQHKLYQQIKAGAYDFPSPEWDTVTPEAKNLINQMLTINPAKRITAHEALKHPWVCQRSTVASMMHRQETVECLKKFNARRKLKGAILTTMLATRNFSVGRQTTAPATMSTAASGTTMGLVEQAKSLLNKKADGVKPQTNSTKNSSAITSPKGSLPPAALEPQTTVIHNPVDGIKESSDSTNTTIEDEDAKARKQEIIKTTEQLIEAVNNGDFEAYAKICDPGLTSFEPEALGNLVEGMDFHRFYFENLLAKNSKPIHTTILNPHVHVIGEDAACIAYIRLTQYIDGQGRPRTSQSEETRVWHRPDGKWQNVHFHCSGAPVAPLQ

Target: Green Camuiβ (UniProt P08413)
Test: SEC

Green Camuiβ (from UniProt P08413 1-542)
binding: binds
